Test results from the supplement of paper PMC10689618.
Where a name gives a salt, the structure may show the parent alone. The list shows a part of the results. Repeats are few or missing, and single values can be far off.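 Labelled rat cortical synaptosomes were engulfed by primary human fetal astrocytes. Engulfment equaled a red/green ratio, corrected for calcein live-cell signal and normalized to the plate median. Compounds were toxic when calcein dropped over 30%, and reduced phagocytosis when below 70% of the median above 5 µM.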

Key:
Conditions in all cases: 24 h
[1] = tested on: Human fetal astrocytes; experiment: loss of total cells relative to no-compound high-control median (toxicity); higher = more toxic (fewer cells)
[2] = tested on: Human fetal astrocytes; experiment: as above; remark: listed apart in the source
[3] = tested on: Human fetal astrocytes; experiment: synaptosome phagocytosis (pHrodo/calcein intensity ratio) relative to plate median of data wells; higher = more phagocytosis
[4] = tested on: Human fetal astrocytes; experiment: as above; remark: listed apart in the source

| Structure (SMILES) | loss of total cells ([1]; 1.39 µM) | loss of total cells ([1]; 2.78 µM) | loss of total cells ([1]; 5.56 µM) | loss of total cells ([1]; 11.11 µM) | loss of total cells ([1]; 22.22 µM) | loss of total cells ([2]; 1.39 µM) | loss of total cells ([2]; 2.78 µM) | loss of total cells ([2]; 5.56 µM) | loss of total cells ([2]; 11.11 µM) | loss of total cells ([2]; 22.22 µM) | synaptosome phagocytosis ([3]; 1.39 µM) | synaptosome phagocytosis ([3]; 2.78 µM) | synaptosome phagocytosis ([3]; 5.56 µM) | synaptosome phagocytosis ([3]; 11.11 µM) | synaptosome phagocytosis ([3]; 22.22 µM) | synaptosome phagocytosis ([4]; 1.39 µM) | synaptosome phagocytosis ([4]; 2.78 µM) | synaptosome phagocytosis ([4]; 5.56 µM) | synaptosome phagocytosis ([4]; 11.11 µM) | synaptosome phagocytosis ([4]; 22.22 µM) |
| --- | --- | --- | --- | --- | --- | --- | --- | --- | --- | --- | --- | --- | --- | --- | --- | --- | --- | --- | --- | --- |
| NC(=O)NO [Hydroxyurea] | 0.4% | 12% | -3.3% | 6.7% | 3.2% | 21.1% | -7.1% | 1.4% | 11.8% | -16.7% | 95.5% | 131% | 122% | 114% | 130% | 92.5% | 126% | 113% | 123% | 120% |
| O=C(O)CN(CCN(CC(=O)O)CC(=O)O)CCN(CC(=O)O)CC(=O)O [Diethylenetriaminepentaacetic acid] | -2.9% | 13.7% | -8.2% | -32.7% | 7.2% | -19.9% | -3.4% | 0.9% | -30.5% | -8.5% | 117% | 115% | 117% | 87.4% | 88.5% | 123% | 119% | 123% | 96.2% | 133% |
| N=C(N)NC(=O)c1nc(Cl)c(N)nc1N [Amiloride hydrochloride] | 5.5% | -14.1% | -19.8% | 11.2% | -16.9% | -3.3% | -14.3% | 11.7% | 1.6% | 12.5% | 82.3% | 90.8% | 104% | 95.3% | 76.4% | 102% | 95.8% | 79.2% | 114% | 65.1% |
| Nc1c2c(nc3ccccc13)CCCC2 [9-Amino-1,2,3,4-tetrahydroacridine hydrochloride] | -22.4% | -17.7% | -17.1% | -13.9% | 10.2% | 12.7% | 10% | -9.9% | 48.4% | 13% | 94.2% | 74.8% | 83.9% | 107% | 63.3% | 97.7% | 112% | 96.6% | 87% | 120% |
| CN1CCN(C2=Nc3cc(Cl)ccc3Nc3ccccc32)CC1 [Clozapine] | -18.3% | -15.6% | -17.1% | -5.8% | 20.7% | 9.2% | -9.8% | -3.5% | 3.7% | -17.3% | 103% | 106% | 82.7% | 71.7% | 63.4% | 112% | 93.7% | 108% | 98.6% | 84.2% |
| O=C(c1ccc(OCCN2CCCCC2)cc1)c1c(-c2ccc(O)cc2)sc2cc(O)ccc12 [Raloxifene hydrochloride] | -10.9% | -6.3% | 21.9% | 8.8% | 24.7% | -27.4% | -17.5% | -3.7% | 27.2% | 0.3% | 77.9% | 83.6% | 66.9% | 75.4% | 29.1% | 87.7% | 78.6% | 90.6% | 46.9% | 38.6% |
| N=c1nc(N2CCCCC2)cc(N)n1O [Minoxidil] | -0.5% | -12.2% | 13.6% | -7.6% | 2.8% | -34.9% | -17.4% | 11.1% | 2.3% | 10.8% | 114% | 106% | 128% | 124% | 143% | 98.9% | 76.3% | 72.9% | 90.1% | 92.8% |
| CC(C)(C)CC(C)(C)c1ccc(OCCOCC[N+](C)(C)Cc2ccccc2)cc1 | – | – | – | – | – | – | – | – | – | – | 50.8% | 29.2% | 47.7% | 26.2% | 0% | – | – | – | – | – |
| CCC(C)(C)C(=O)O[C@H]1C[C@@H](C)C=C2C=C[C@H](C)[C@H](CC[C@@H]3C[C@@H](O)CC(=O)O3)[C@H]21 | – | – | – | – | – | – | – | – | – | – | 149% | 115% | 71.5% | 91.9% | 76.8% | – | – | – | – | – |
| CN(C)CCCN1c2ccccc2CCc2ccccc21 [Imipramine hydrochloride] | -8.1% | 4.1% | 12.7% | 13.3% | 21.5% | -5.6% | -3.1% | -4.9% | 20.5% | -7.6% | 83.5% | 80.3% | 93.5% | 71.3% | 58.9% | 93.9% | 84.7% | 53.2% | 78.2% | 83.8% |
| CN(C)CCC=C1c2ccccc2CCc2ccccc21 [Amitriptyline hydrochloride] | -8.8% | -8.4% | -22.6% | -4.9% | -4.9% | -1.7% | -10.7% | -12.3% | -31.3% | -2.3% | 79.1% | 89.5% | 74.6% | 151% | 53.7% | 114% | 81.2% | 97.8% | 73% | 114% |
| Clc1ccc2c(c1)C(N1CCNCC1)=Nc1ccccc1O2 [Amoxapine] | -20.9% | -11.7% | -26.3% | 2.2% | 12.4% | 6.9% | 4.7% | 2.3% | 49.7% | 16.7% | 101% | 85.5% | 70.2% | 129% | 68.9% | 91% | 95.5% | 104% | 88% | 81.6% |
| O=C(O)C1=C[C@@H](O)[C@@H](O)[C@H](O)C1 | – | – | – | – | – | – | – | – | – | – | 98.2% | 90.1% | 139% | 111% | 127% | – | – | – | – | – |
| COc1ccc(CN(CCN(C)C)c2ccccn2)cc1 [Pyrilamine maleate] | -8.1% | 4.1% | -20.2% | -1% | -4.7% | 4.5% | -24.1% | -9.1% | 4.3% | -4% | 105% | 128% | 101% | 110% | 140% | 107% | 115% | 77.7% | 131% | 122% |
| CCCC(CCC)C(=O)O [Valproic acid sodium] | -9% | 4.1% | -5.2% | 6.7% | 13.1% | -2.7% | 2.4% | -1.4% | -1.4% | 28.3% | 75.5% | 88.1% | 99.2% | 123% | 134% | 100% | 120% | 96% | 101% | 76.3% |
| CN(C)CCC(c1ccc(Cl)cc1)c1ccccn1 (racemic) [(±)-Chlorpheniramine maleate] | -6.6% | -1.8% | -0.5% | -20.2% | 17.7% | -16.9% | -31% | 1.9% | -1% | 4.7% | 122% | 86.8% | 97.8% | 93.1% | 122% | 118% | 98.9% | 125% | 132% | 116% |
| CN(C)CCC=C1c2ccccc2C=Cc2ccccc21 [Cyclobenzaprine hydrochloride] | -12.1% | -12.3% | -6% | 5.8% | 14.7% | -2.5% | 6.9% | 5.8% | 11.3% | -6.8% | 70.4% | 56.8% | 69.9% | 70.2% | 52.6% | 84.5% | 105% | 103% | 83.7% | 102% |
| CCCCNc1cc(C(=O)O)cc(S(N)(=O)=O)c1Oc1ccccc1 [Bumetanide] | -12.5% | -9% | -5.1% | -9.4% | -10.2% | -0.8% | -11.9% | 12.9% | 10.9% | -0.6% | 113% | 124% | 104% | 88.6% | 95.5% | 95.1% | 133% | 125% | 96.4% | 118% |
| Cc1c(OCC(F)(F)F)ccnc1C[S+]([O-])c1nc2ccccc2[nH]1 (stereo not given) [Lansoprazole] | -13.7% | 0.5% | 8% | 18.1% | 3.7% | -50.8% | 17.5% | 3.7% | 50.8% | 10.9% | 75.9% | 124% | 78.5% | 113% | 110% | 128% | 78.3% | 93.4% | 121% | 76.6% |
| CN(C)CCCC1(c2ccc(F)cc2)OCc2cc(C#N)ccc21 (stereo not given) [Citalopram hydrobromide] | -12.1% | -7.2% | -8.8% | -8.5% | 12.4% | -35.5% | 35.7% | 11.8% | 53.4% | 15.9% | 67.3% | 119% | 89.3% | 92.5% | 84.5% | 78.6% | 100% | 85.6% | 96.3% | 91.2% |
| CN1C(C(=O)Nc2ccccn2)=C(O)c2ccccc2S1(=O)=O [Piroxicam] | -14.7% | 11.3% | 15.5% | 6.7% | -1.9% | 2.1% | -16.6% | -0.7% | -15.3% | -12.5% | 79.9% | 93.5% | 114% | 105% | 95.8% | 89.3% | 85.3% | 79.5% | 94.4% | 99.2% |
| CN[C@H](CC(=O)O)C(=O)O [N-Methyl-D-aspartic acid] | -10% | 14.9% | 9.9% | 5.7% | 12.1% | -14.8% | -9.7% | -0.7% | 4.7% | -7.4% | 123% | 88.1% | 118% | 108% | 144% | 107% | 93.5% | 110% | 80.8% | 131% |
| Cc1ccc(/C(=C\CN2CCCC2)c2ccccn2)cc1 [Triprolidine hydrochloride] | 3.4% | -12.9% | 10.1% | 1.1% | -30.5% | 4.5% | 7.8% | -0.7% | 13.5% | 8.2% | 74.7% | 111% | 96.2% | 119% | 92.6% | 117% | 116% | 108% | 106% | 112% |
| C=CCc1ccccc1OCC(O)CNC(C)C (stereo not given) [Alprenolol hydrochloride] | 8.1% | -15.3% | 2.3% | -10.3% | 5.6% | 17.8% | -2.7% | 1.5% | 12.3% | 6.3% | 141% | 104% | 112% | 58% | 90.5% | 96.2% | 117% | 102% | 62.6% | 97.4% |
| O=C(O)Cc1ccccc1Nc1c(Cl)cccc1Cl [Diclofenac sodium] | 0.4% | -23.9% | 14% | -9.4% | 18.4% | 5.6% | -18.6% | 11.1% | 15.3% | 11.2% | 113% | 119% | 93.1% | 98.2% | 107% | 117% | 121% | 121% | 111% | 117% |
| Clc1ccc(Cn2c(CN3CCCC3)nc3ccccc32)cc1 [Clemizole hydrochloride] | -16.9% | -25.6% | -3.2% | -11.2% | 4.1% | 18.4% | 3.2% | 5.8% | 8.8% | 25% | 122% | 76.3% | 83.4% | 74% | 87.7% | 139% | 100% | 103% | 101% | 109% |
| CC(C)COCC(CN(Cc1ccccc1)c1ccccc1)N1CCCC1 (stereo not given) [Bepridil hydrochloride] | -10.3% | -3.3% | 5.1% | 1.3% | -14.7% | -32.3% | -25.4% | -1.9% | 47.5% | 14% | 99.3% | 93.7% | 97.6% | 144% | 55.5% | 110% | 90.9% | 134% | 98.9% | 93.9% |

Given with bars between the fields: part of the list above.
Structure (SMILES) | loss of total cells ([1]; 1.39 µM) | loss of total cells ([1]; 2.78 µM) | loss of total cells ([1]; 5.56 µM) | loss of total cells ([1]; 11.11 µM) | loss of total cells ([1]; 22.22 µM) | loss of total cells ([2]; 1.39 µM) | loss of total cells ([2]; 2.78 µM) | loss of total cells ([2]; 5.56 µM) | loss of total cells ([2]; 11.11 µM) | loss of total cells ([2]; 22.22 µM) | synaptosome phagocytosis ([3]; 1.39 µM) | synaptosome phagocytosis ([3]; 2.78 µM) | synaptosome phagocytosis ([3]; 5.56 µM) | synaptosome phagocytosis ([3]; 11.11 µM) | synaptosome phagocytosis ([3]; 22.22 µM) | synaptosome phagocytosis ([4]; 1.39 µM) | synaptosome phagocytosis ([4]; 2.78 µM) | synaptosome phagocytosis ([4]; 5.56 µM) | synaptosome phagocytosis ([4]; 11.11 µM) | synaptosome phagocytosis ([4]; 22.22 µM)
CN(C)CCC=C1c2ccccc2CCc2ccccc21 [Amitriptyline hydrochloride] | -8.8% | -8.4% | -22.6% | -4.9% | -4.9% | -1.7% | -10.7% | -12.3% | -31.3% | -2.3% | 79.1% | 89.5% | 74.6% | 151% | 53.7% | 114% | 81.2% | 97.8% | 73% | 114%
COc1ccc(CN(CCN(C)C)c2ccccn2)cc1 [Pyrilamine maleate] | -8.1% | 4.1% | -20.2% | -1% | -4.7% | 4.5% | -24.1% | -9.1% | 4.3% | -4% | 105% | 128% | 101% | 110% | 140% | 107% | 115% | 77.7% | 131% | 122%
